Experimental findings from PMC12569429 are described below.

The exact form of at least one protein or probe is not confirmed.

The test system of the data set is GST-PtABI3_B3 (Pinus tabuliformis). In words: EMSA. Particulars: EMSA with Beyotime GS009 chemiluminescent kit; pH and temperature not stated; recombinant protein; protein details: N-terminal GST (pGEX-4T-1). A general note: A gel shift assay detects complexes by their altered migration in electrophoresis.

Turning to “GAATCATTTGGGTCATGCATCCTATGCATGCTCATCGAT (double strand) [PtDAL1-RY probe]”, the binding result is reported as “binds”.
